PubChem BioAssay AID1671190 (National Center for Advancing Translational Sciences (NCATS), 2021)
Several values for one entry are separate records, joined by “and”; a condition that tells them apart may be missing. Identical values can stand only once. About 6,100 (1.1%) of roughly 580,000 compounds were called active. Inconclusive means that the source gave no clear call. Such entries were picked first, then a sample of the others. The call rests on the fitted dose curve; in most records, active means well fitted inhibition curve with a large enough effect; inconclusive means small, poorly fitted or top-dose-only effect, or another doubt; inactive means no such curve, though single readings can be large or run the other way. Where the call is inconclusive, the potency comes from a doubtful curve fit. Some compounds were tested as several samples or in several runs, with calls that do not always agree.

By UniProt entry, the sequences of proteins in these tests, tags left out. Where a name states a change or a piece, a line headed by the entry shows the natural chain unless it says otherwise.
UniProt P18054: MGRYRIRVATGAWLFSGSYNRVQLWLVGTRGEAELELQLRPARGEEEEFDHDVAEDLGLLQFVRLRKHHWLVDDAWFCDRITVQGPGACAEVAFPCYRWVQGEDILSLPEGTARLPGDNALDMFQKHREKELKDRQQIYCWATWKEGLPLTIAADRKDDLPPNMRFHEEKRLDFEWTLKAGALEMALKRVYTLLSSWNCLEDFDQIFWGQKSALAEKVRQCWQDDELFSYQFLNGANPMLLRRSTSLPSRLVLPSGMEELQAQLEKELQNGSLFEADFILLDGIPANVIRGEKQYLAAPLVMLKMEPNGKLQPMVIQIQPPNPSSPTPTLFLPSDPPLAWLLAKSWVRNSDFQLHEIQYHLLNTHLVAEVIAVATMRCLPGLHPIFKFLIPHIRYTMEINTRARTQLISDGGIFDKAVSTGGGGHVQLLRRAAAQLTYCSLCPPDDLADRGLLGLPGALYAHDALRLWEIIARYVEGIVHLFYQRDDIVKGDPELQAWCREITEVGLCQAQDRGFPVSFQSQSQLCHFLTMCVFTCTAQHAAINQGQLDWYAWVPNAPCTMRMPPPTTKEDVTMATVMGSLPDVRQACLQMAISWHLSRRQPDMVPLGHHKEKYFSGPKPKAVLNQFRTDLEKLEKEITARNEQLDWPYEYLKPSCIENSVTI

target: Polyunsaturated fatty acid lipoxygenase ALOX12 (Homo sapiens) (UniProt P18054); experiment: Primary qHTS assay for inhibitors of human arachidonate 12S-lipoxygenase (ALOX12): Round 2; settings: purified 12hLO, xylenol orange hydroperoxide absorbance; activity change, negative = inhibition: at 108 µM (top of the series) unless noted
Procedure, shortened: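 Hydroperoxide product was detected by ferrous iron/xylenol orange as the 573 to 405 nm absorbance ratio. Arachidonic acid at 40 uM (final) was turned over for 30 min at room temperature by 150 nM human 12hLO, pH 7.0 Hepes buffer, after 15 min compound preincubation.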
On the % scale 0 is the no-effect control and ±100 the full control effect; potency means the concentration at half of the fitted maximal effect.

Question: With `Cn1ccnc1C(=O)N1CCC2(CC1)CC(Cc1nc(C3CC3)no1)CCO2` (stereo not drawn) as the molecule, how does the Potency read?
Answer: inactive

Question: For `O=C1Nc2ccccc2CC12CCCN2Cc1ccc(Cl)cc1` (stereo not drawn), which Potency is on record?
Answer: inconclusive: 6.31 µM [inhibitor, full curve, poor fit]

Question: Which Potency does the source give for `Cc1ccccc1-c1cc(=O)c2cc(NC(=O)c3ccncc3)ccc2o1` here?
Answer: inactive

Question: How did the Potency turn out when `O=C(NCCCc1ccccc1)c1cccc([N+](=O)[O-])c1` was run?
Answer: inactive

Question: For `Cc1nc(Nc2ccc3c(c2)OCCO3)c2oc3ccccc3c2n1`, which Potency is on record?
Answer: inconclusive: 11.2 µM [inhibitor, full curve, poor fit]

Question: `S=C(NCc1ccccn1)Nc1ccc(Cl)c(Cl)c1` was tested. Which Potency did it give?
Answer: inconclusive: 79.4 µM [inhibitor, partial curve, poor fit]

Question: Which Potency does the source give for `CCCN1CCN(C(=O)c2noc3c2COc2ccc(C)cc2-3)CC1` here?
Answer: inconclusive: 141 µM [inhibitor, single point]

Question: With `Cc1ccc(NCc2cccnc2)c(Br)c1` as the molecule, how does the Potency read?
Answer: inconclusive: 6.31 µM [inhibitor, full curve, poor fit]

Question: `Cc1cc(C)c(CN2CCN(CCCn3cnc(C(=O)Nc4ccc(C)c(C)c4)n3)CC2)c(C)c1` was tested. Which Potency did it give?
Answer: inconclusive: 39.8 µM [inhibitor, partial curve, poor fit]

Question: With `Cc1cccc(N2CCN(C(=O)C(C)C)CC2)c1C` as the molecule, how does the Potency read?
Answer: inactive

Question: `CSc1ncc2c(=O)[nH]c(-c3ccccc3)nc2n1` was tested. Which Potency did it give?
Answer: inactive

Question: For `COC(=O)C1=C(O)/C(=C\c2cc(C)n(-c3ccccc3C)c2C)N=C1C`, which Potency is on record?
Answer: inconclusive: 39.8 µM [inhibitor, partial curve]

Question: `CC(C)C(N)c1csc(Nc2ccccn2)n1` (stereo not drawn) was tested. Which Potency did it give?
Answer: inactive

Question: For `CCOC(=O)C(=O)Nc1c(C(=O)Nc2ccc(F)cc2)oc2ccccc12`, which Potency is on record?
Answer: inconclusive: 20 µM [inhibitor, partial curve, poor fit]

Question: For `Cc1ccccc1-c1nnc(SCC(=O)c2ccc(C#N)cc2)n1C`, which Potency is on record?
Answer: inconclusive: 17.8 µM [inhibitor, full curve]

Question: How did the Potency turn out when `O=C(CSc1nnc2scc(-c3ccccc3)n12)N1CCN(Cc2ccccc2)CC1` was run?
Answer: inactive

Question: How did the Potency turn out when `CC(C)c1ccc(CNc2nc(NCC3CC3)nc3ccsc23)cc1` was run?
Answer: active: 50.1 µM

Question: Which Potency does the source give for `Cc1[nH]c2ccc(F)cc2c1CCN(Cc1cccnc1)C(=S)Nc1ccc(F)cc1` here?
Answer: inactive

Question: `N#Cc1ccccc1NC(=O)C(=O)NCCCN1CCCC1=O` was tested. Which Potency did it give?
Answer: inconclusive: 39.8 µM [inhibitor, partial curve, poor fit]

Question: `CCCCNC(=S)Nc1ccc2nc(N3CCN(CC)CC3)cc(C)c2c1` was tested. Which Potency did it give?
Answer: inconclusive: 50.1 µM [inhibitor, partial curve, poor fit]

Question: How did the Potency turn out when `Oc1ccc(-c2nccc(-c3ccc(Cl)cc3)n2)cc1` was run?
Answer: inconclusive: 79.4 µM [inhibitor, single point]

Question: Which Potency does the source give for `C[C@@H]1CN([C@@H](C)CO)C(=O)CCCn2nncc2CO[C@H]1CN(C)Cc1ccncc1` here?
Answer: inconclusive: 79.4 µM [inhibitor, single point]

Question: `COc1cccc(Cn2c(=O)c(-c3cccs3)nc3cnc(Nc4ccccc4)nc32)c1` was tested. Which Potency did it give?
Answer: inconclusive: 126 µM [inhibitor, single point]

Question: With `C=CC1=CCN(S(=O)(=O)C(C)(C)C)[C@@H]1CCO` as the molecule, how does the Potency read?
Answer: inconclusive: 35.5 µM [inhibitor, partial curve, poor fit]

Question: How did the Potency turn out when `O=C(/C=C/c1ccc(O)c(O)c1)OCCc1ccccc1` was run?
Answer: active: 2.51 µM and inconclusive: 5.01 µM [inhibitor, full curve, poor fit] and active: 11.2 µM

Question: How did the Potency turn out when `COc1cccc(-c2nc(C(N)=O)c3[nH]c(=O)n(-c4cccc(Cl)c4)c3n2)c1OC` was run?
Answer: inactive

Question: `CCOC(=O)c1cccc(Nc2ncnc3ccccc23)c1` was tested. Which Potency did it give?
Answer: inconclusive: 79.4 µM [inhibitor, single point]

Question: Which Potency does the source give for `O=C1/C(=C\c2ccc(O)c(O)c2)Oc2c1ccc(O[C@@H]1O[C@H](CO)[C@@H](O)[C@H](O)[C@H]1O)c2O` here?
Answer: inconclusive: 5.01 µM [inhibitor, full curve, poor fit]

Question: For `CCCC12CN3CC(C)(CN(C1)C3c1cccs1)C2=O` (stereo not drawn), which Potency is on record?
Answer: inconclusive: 126 µM [inhibitor, partial curve, poor fit]

Question: `CCC(C)n1c(=N)c(C(=O)NCc2ccco2)cc2c(=O)n3cc(C)ccc3nc21` (stereo not drawn) was tested. Which Potency did it give?
Answer: inconclusive: 100 µM [inhibitor, partial curve, poor fit]

Question: `CC1CCCCN1CCCNC(=O)c1sc2ncccc2c1-n1cccc1` (stereo not drawn) was tested. Which Potency did it give?
Answer: inactive

Question: `COC(=O)c1ccccc1SCC(=O)C12CC3CC(CC(C3)C1)C2` was tested. Which Potency did it give?
Answer: inconclusive: 44.7 µM [inhibitor, full curve, poor fit]

Question: How did the Potency turn out when `Cc1noc(-c2ccc3c(c2)OCO3)c1C(=O)NCc1ccccc1` was run?
Answer: inactive

Question: How did the Potency turn out when `CCc1ccc(C(=O)CSC(=S)N(C)C)cc1` was run?
Answer: inconclusive: 35.5 µM [inhibitor, partial curve, poor fit]

Question: For `C[C@H]1CN([C@@H](C)CO)C(=O)CCCn2nncc2CO[C@@H]1CN(C)Cc1ccccc1C(F)(F)F`, which Potency is on record?
Answer: inconclusive: 112 µM [inhibitor, single point]

Question: Which Potency does the source give for `CCCCNC(=O)N[C@H](Cc1ccccc1)C(=O)O` here?
Answer: inconclusive: 44.7 µM [inhibitor, partial curve, poor fit]

Question: With `O=C(NCCN1CCC(n2c(=O)[nH]c3ccccc32)CC1)c1ccccc1Cl` as the molecule, how does the Potency read?
Answer: inconclusive: 28.2 µM [inhibitor, partial curve]

Question: For `Cc1cccc(Cn2c(CN3CCC(C(=O)NCc4ccccc4Cl)CC3)cc3ccccc32)c1`, which Potency is on record?
Answer: inconclusive: 112 µM [inhibitor, partial curve, poor fit]

Question: How did the Potency turn out when `CC(OC(=O)c1ccc(Cl)c(S(=O)(=O)N2CCOCC2)c1)C(=O)NC1CCCCC1C` (stereo not drawn) was run?
Answer: inactive

Question: `Cc1cccc([C@@H]2[C@@H]3C(=O)N(Cc4ccccc4)C(=O)[C@@H]3[C@]3(CC(C)C)C(=O)N(c4cccc(Cl)c4)C(=O)N23)c1` was tested. Which Potency did it give?
Answer: inactive

Question: `COc1ccc(/C=C(/C#N)C(=O)OCc2c(Cl)cccc2Cl)cc1` was tested. Which Potency did it give?
Answer: inactive

Question: How did the Potency turn out when `O=C(N[C@@H]1CN(Cc2ccc3cc[nH]c3c2)C[C@H]1CO)c1ccccc1` was run?
Answer: active: 28.2 µM

Question: For `CCCCN(CCCC)C(=S)N/N=C/c1c(C)[nH]n(-c2ccccc2)c1=O`, which Potency is on record?
Answer: inconclusive: 31.6 µM [inhibitor, partial curve, poor fit]

Question: For `COc1ccc(N(C(=O)c2ccco2)S(=O)(=O)c2cccs2)cc1`, which Potency is on record?
Answer: inconclusive: 79.4 µM [inhibitor, single point]

Question: How did the Potency turn out when `C=CC(=O)Nc1cccc(Oc2nc(Nc3ccc(N4CCN(C)CC4)cc3OC)ncc2Cl)c1` was run?
Answer: inconclusive: 100 µM [inhibitor, single point]

Question: Which Potency does the source give for `O=C(C(c1ccccc1)N1CCN(S(=O)(=O)c2cccs2)CC1)N1CCCC1` (stereo not drawn) here?
Answer: inconclusive: 0.282 µM [inhibitor, full curve, poor fit]

Question: How did the Potency turn out when `O=C(Nc1cccc(Cl)c1F)c1cc(S(=O)(=O)N2CCOCC2)c(Cl)cc1Cl` was run?
Answer: inconclusive: 141 µM [inhibitor, single point]

Question: For `CCCN(CCC)S(=O)(=O)c1cc2c3c(c1)CCN3C(=O)CC2`, which Potency is on record?
Answer: inconclusive: 15.8 µM [inhibitor, full curve]

Question: Which Potency does the source give for `CNC(=O)c1cccc(-n2c(C)nc3cccnc32)c1C` here?
Answer: inconclusive: 112 µM [inhibitor, partial curve, poor fit]

Question: Which Potency does the source give for `Cc1cccc(OCCCCc2c(C)n[nH]c2C)c1C` here?
Answer: inconclusive: 89.1 µM [inhibitor, partial curve, poor fit]

Question: For `CC(C)c1nc2cc(NC(=O)CNC(=O)c3ccco3)ccc2o1`, which Potency is on record?
Answer: inactive

Question: With `COc1ccc(-c2nc3c(s2)CN(C(C(=O)O)c2c[nH]c4cc(CO)ccc24)CC3)cc1OC` (stereo not drawn) as the molecule, how does the Potency read?
Answer: inconclusive: 44.7 µM [inhibitor, partial curve, poor fit]

Question: Which Potency does the source give for `O=S(=O)(NCc1ccccc1)c1ccccc1NCCc1ccccc1` here?
Answer: inactive

Question: How did the Potency turn out when `COCCn1cc(-c2csc(N)n2)c2ccccc21` was run?
Answer: inconclusive: 0.708 µM [inhibitor, full curve, poor fit]

Question: Which Potency does the source give for `O=C(O)c1ccccc1S(=O)(=O)Cc1ccc(Cl)cc1` here?
Answer: inactive

Question: For `Cc1ccc(NC(=O)CSc2nnc(C)c(=O)n2N)c(C)c1`, which Potency is on record?
Answer: inconclusive: 50.1 µM [inhibitor, partial curve, poor fit]

Question: How did the Potency turn out when `Cc1ccc(/C=N/c2sc(C)c(C)c2C#N)cc1` was run?
Answer: inconclusive: 50.1 µM [inhibitor, partial curve]

Question: How did the Potency turn out when `CC1=NN(C(=O)CSCc2ccccc2Cl)C(O)(C(F)(F)F)C1` (stereo not drawn) was run?
Answer: inactive

Question: For `COc1cc(/C=N/N2C(C)CCCC2C)cc(OC)c1O` (stereo not drawn), which activity change, negative = inhibition is on record?
Answer: inconclusive: -30.6% [inhibitor]

Question: How did the Potency turn out when `COc1ccc(N2c3ccccc3CN(Cc3ccccc3)[C@@H](C)[C@H]2Cc2ccc(-c3ccccc3)cc2)cc1` was run?
Answer: inconclusive: 50.1 µM [inhibitor, partial curve, poor fit]

Question: `COc1ccc(C2(C(=O)Nc3cc(C)on3)CCOCC2)cc1` was tested. Which Potency did it give?
Answer: inactive

Question: How did the Potency turn out when `O=C(CNc1ccccc1)NNC(=O)c1cc(-c2ccccc2)nn1-c1ccccc1` was run?
Answer: inactive

Question: With `COc1nc(NCCc2ccc(OC)c(OC)c2)nc(NC(C)(C)CO)n1` as the molecule, how does the Potency read?
Answer: inactive

Question: Which Potency does the source give for `Cc1cc(NS(=O)(=O)c2ccc(NC(=S)Nc3ccc(Cl)cc3C)cc2)no1` here?
Answer: inconclusive: 44.7 µM [inhibitor, partial curve, poor fit]

Question: How did the Potency turn out when `O=C(c1cccc(F)c1)N1CCN(c2nnc3ccc(Cl)cn23)CC1` was run?
Answer: inactive

Question: How did the Potency turn out when `CCOC(=O)N(C)c1c(CC)nc2c(OCc3ccc(OC(F)F)cc3)cccn12` was run?
Answer: inactive

Question: For `COc1ccccc1CCC(=O)N1CCC2(CC1)NC(=O)N(c1cccc(F)c1)N2`, which Potency is on record?
Answer: active: 10 µM

Question: How did the Potency turn out when `O=C(NCCc1ccc(Cl)cc1)C1CCN(C(=O)N2CCOc3ccccc32)CC1` was run?
Answer: inactive
